# Literature values as cited in US20150374649A1, “Treatment of Severe Hypertriglyceridemia” (CymaBay Therapeutics, Inc, priority 2014, published 2015).
# At least one structure is not confirmed: it was looked up by name or label, or the drawing left a doubt.
# Tested on: diabetic patients
# Details: not statistically significant; cited from earlier work
compound,measurement,value
CC(C)OC(=O)C(C)(C)Oc1ccc(C(=O)c2ccc(Cl)cc2)cc1 [fenofibrate],reduction in the primary endpoint of cardiovascular disease,16%
